{
  "source": "patent US8367696B2",
  "about": "“Aza-bridged-ring compound” (Astellas Pharma Inc., priority 2007, dated 2013)",
  "test_system": "carbachol-induced airway contraction",
  "test": "Test of rat airway contraction (carbachol-induced rise in airway pressure)",
  "assay_type": "in vivo",
  "conditions": "evaluation after 3 hours from oral administration, carbachol 30 μg/kg i.v.",
  "protocol": "a. Test of Rat Airway Contraction\nMale SD rats (250 to 400 g) were anesthetized by the intraperitoneal administration of pentobarbital sodium (Nembutal; 50 mg/kg), and the major airway was dissected. An airway cannula was intubated into the trachea, and the pressure in the airway was measured by a pressure transducer. After administration of pancuronium bromide (0.2 mg/kg, i.v.), a stable pressure in the airway was obtained before the experiment was initiated. For the experiment, by administration into the external maxillary vein/administration into the duodenum/oral administration/administration into the airway, physiological saline (in the case of oral administration/administration into the duodenum, distilled water) or a compound to be tested was administered, and after 5 to 30 minutes in the case of intravenous administration, after 0.25 to 6 hours in the case of oral administration into the duodenum, and after 0.25 to 72 hours in the case of administration into the airway, carbachol was intravenously administered at a dose (volume) of 30 μg/kg (1 mL/kg), and the pressures in the airway were then measured, respectively, for a period of 5 minutes. […]",
  "note": "At least one structure is not confirmed: it was looked up by name or label, or the drawing left a doubt.",
  "data": [
    {"smiles": "O=C(N[C@@H]1CCCC[C@H]1c1ccccc1)O[C@H]1CN2CCC1CC2", "note": "[Example 26]", "values": [
      {"measurement": "ID50, carbachol-induced airway contraction inhibitory action", "value": 2.45, "unit": "mg/kg"}
    ]}
  ]
}
